These are yes or no findings as the source states them, for the method shown. In cells and extracts the contact can be indirect. Here binding means that the protein was enriched with, or labelled near, the bait; the list need not be complete. Sequences can lack the tags named with a protein.
Target: T1, EYFP-tagged AATK (apoptosis-associated tyrosine kinase), wild type (UniProt Q6ZMQ8)
T1 sequence: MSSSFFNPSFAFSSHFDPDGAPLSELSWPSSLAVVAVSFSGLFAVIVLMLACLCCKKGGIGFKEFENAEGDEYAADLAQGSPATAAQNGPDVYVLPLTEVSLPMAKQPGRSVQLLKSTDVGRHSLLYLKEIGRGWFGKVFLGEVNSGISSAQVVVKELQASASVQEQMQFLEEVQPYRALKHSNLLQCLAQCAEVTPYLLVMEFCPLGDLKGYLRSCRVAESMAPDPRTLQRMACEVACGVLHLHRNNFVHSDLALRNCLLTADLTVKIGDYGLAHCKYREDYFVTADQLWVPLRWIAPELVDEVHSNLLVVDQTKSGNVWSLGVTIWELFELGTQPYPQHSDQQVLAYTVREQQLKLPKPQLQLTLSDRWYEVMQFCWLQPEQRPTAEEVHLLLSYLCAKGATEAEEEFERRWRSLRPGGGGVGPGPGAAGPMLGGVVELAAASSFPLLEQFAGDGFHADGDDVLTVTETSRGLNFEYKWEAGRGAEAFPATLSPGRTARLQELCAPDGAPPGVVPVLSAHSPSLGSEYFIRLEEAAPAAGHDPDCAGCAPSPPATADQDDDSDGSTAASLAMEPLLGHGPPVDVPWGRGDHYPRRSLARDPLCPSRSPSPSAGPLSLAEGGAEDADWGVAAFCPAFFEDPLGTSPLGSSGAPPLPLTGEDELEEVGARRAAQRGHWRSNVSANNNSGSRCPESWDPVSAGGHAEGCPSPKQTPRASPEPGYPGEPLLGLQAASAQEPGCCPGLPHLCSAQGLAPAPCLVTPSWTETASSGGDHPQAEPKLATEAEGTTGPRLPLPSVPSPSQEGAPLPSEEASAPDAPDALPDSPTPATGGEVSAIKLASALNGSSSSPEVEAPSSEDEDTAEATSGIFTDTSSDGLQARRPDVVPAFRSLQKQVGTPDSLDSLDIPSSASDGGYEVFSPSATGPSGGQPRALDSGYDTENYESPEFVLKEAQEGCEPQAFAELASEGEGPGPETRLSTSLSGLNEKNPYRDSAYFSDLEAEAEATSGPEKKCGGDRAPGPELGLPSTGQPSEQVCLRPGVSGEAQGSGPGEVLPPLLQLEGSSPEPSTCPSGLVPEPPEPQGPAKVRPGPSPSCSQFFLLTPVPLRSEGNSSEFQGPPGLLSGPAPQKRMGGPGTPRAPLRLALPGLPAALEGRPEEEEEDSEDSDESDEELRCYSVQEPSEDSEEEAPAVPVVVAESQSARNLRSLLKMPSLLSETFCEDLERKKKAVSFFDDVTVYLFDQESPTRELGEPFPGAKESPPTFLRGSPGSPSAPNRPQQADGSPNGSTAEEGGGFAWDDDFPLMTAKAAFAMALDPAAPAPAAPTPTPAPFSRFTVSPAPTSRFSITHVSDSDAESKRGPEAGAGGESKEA
Assay: affinity purification with mass spectrometry; AATK-EYFP vs. EYFP-empty overexpressed in HEK293T cells (24 h); pulldown by GFP Trap (ChromoTek); quantitative mass spectrometry (MaxQuant); three replicate experiments

Amino acid sequences for entries named in this document (tags omitted).
UniProt P62140: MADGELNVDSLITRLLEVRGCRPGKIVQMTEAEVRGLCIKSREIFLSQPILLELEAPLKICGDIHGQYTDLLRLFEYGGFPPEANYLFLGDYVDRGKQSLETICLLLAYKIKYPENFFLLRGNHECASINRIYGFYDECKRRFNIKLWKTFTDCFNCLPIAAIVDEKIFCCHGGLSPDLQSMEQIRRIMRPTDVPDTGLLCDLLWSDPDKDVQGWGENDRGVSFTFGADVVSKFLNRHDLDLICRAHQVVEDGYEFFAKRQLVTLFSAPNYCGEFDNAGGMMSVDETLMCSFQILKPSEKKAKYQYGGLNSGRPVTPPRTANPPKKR

binding: binds
Substance: PPP1CB (from UniProt P62140 1-327)

Source: article PMC9750878
